Structures can show the parent of a compound that is named as a salt. Some of the results follow. Most entries show no effect beyond the scatter of the controls.

The record followed here is the supplement of paper PMC11348887.

For the test, the system named is hPSC-derived cortical neurons (WA09). Put plainly: KCl-induced FOS+/EGR-1+ double-positive nuclei fraction z-score (KCl minus unstimulated); higher = stronger activity-induced IEG response. To be noted: 5 µM; treatment: days 7-14 after plating, readout day 21.
Turning to `CC[C@]1(O)C[C@H]2CN(CCc3c([nH]c4ccccc34)[C@@](C(=O)OC)(c3cc4c(cc3OC)N(C=O)[C@H]3[C@@](O)(C(=O)OC)[C@H](OC(C)=O)[C@]5(CC)C=CCN6CC[C@]43[C@@H]65)C2)C1` [Vincristine], the “KCl-induced FOS+/EGR-1+ double-positive nuclei fraction z-score” value was -0.729.

For the compound `CC(=O)OCC(=O)[C@@]1(O)[C@H](C)C[C@H]2[C@@H]3CCC4=CC(=O)C=C[C@]4(C)[C@@]3(F)[C@@H](O)C[C@@]21C` [Dexamethasone Acetate], the “KCl-induced FOS+/EGR-1+ double-positive nuclei fraction z-score” value was -1.87.

As to `CCCCCCCCCCCCCCCCn1cc[n+](Cc2ccccc2)c1C`, the “KCl-induced FOS+/EGR-1+ double-positive nuclei fraction z-score” value is -0.164.

Turning to `NC1=N[C@@]2(c3cc(NC(=O)c4ccc(F)cn4)ccc3F)COC[C@H]2CS1`, the “KCl-induced FOS+/EGR-1+ double-positive nuclei fraction z-score” value was -0.162.

In the case of `O=C(Nc1cccc2cccnc12)c1ccc(N2C(=O)[C@@H]3[C@H](C2=O)[C@@H]2C=C[C@H]3C2)cc1` [IWR-1-endo], the “KCl-induced FOS+/EGR-1+ double-positive nuclei fraction z-score” value was 1.51.

In the case of `CC(C)(C)C(=O)C(Oc1ccc(Cl)cc1)n1ccnc1` (stereo not drawn) [Climbazole], the “KCl-induced FOS+/EGR-1+ double-positive nuclei fraction z-score” value stood at 0.417.

Take `O=C1Nc2ccc(I)cc2/C1=C/c1cc(Br)c(O)c(Br)c1`: the “KCl-induced FOS+/EGR-1+ double-positive nuclei fraction z-score” value amounted to 1.71.

With `COc1ccc(/C=C\c2cc(OC)c(OC)c(OC)c2)cc1O` [Combretastatin A4], the “KCl-induced FOS+/EGR-1+ double-positive nuclei fraction z-score” value is -6.04.

For the compound `CN(c1ccccc1CNc1nc(Nc2ccc3c(c2)CC(=O)N3)ncc1C(F)(F)F)S(C)(=O)=O`, the “KCl-induced FOS+/EGR-1+ double-positive nuclei fraction z-score” value was -1.4.

For `COc1ccc(C2=N[C@H](c3ccc(Cl)cc3)[C@H](c3ccc(Cl)cc3)N2C(=O)N2CCNC(=O)C2)c(OC(C)C)c1` [Nutlin-3b], the “KCl-induced FOS+/EGR-1+ double-positive nuclei fraction z-score” value came to 0.108.

Turning to `OCCOc1ccc(/C(=C(/CCCl)c2ccccc2)c2ccccc2)cc1` [Ospemifene], the “KCl-induced FOS+/EGR-1+ double-positive nuclei fraction z-score” value worked out at 1.7.

As for `Cc1ccccc1CN1C2=NCCN2C(=O)C2=C1CCN(Cc1ccccc1)C2` [TIC10 Analogue], the “KCl-induced FOS+/EGR-1+ double-positive nuclei fraction z-score” value was found to be 0.491.

Take `CNC[C@H](O)[C@@H](O)[C@H](O)[C@H](O)CO` [Meglumine]: the “KCl-induced FOS+/EGR-1+ double-positive nuclei fraction z-score” value amounted to 0.642.

As to `Cc1c(C)c2c(c(C)c1O)CC[C@@](C)(CCC[C@H](C)CCC[C@H](C)CCCC(C)C)O2` [Vitamin E], the “KCl-induced FOS+/EGR-1+ double-positive nuclei fraction z-score” value came to 2.28.

On to `COc1ccnc2[nH]cc(C(=O)C(=O)N3CCN(C(=O)c4ccccc4)C[C@H]3C)c12`, for which the “KCl-induced FOS+/EGR-1+ double-positive nuclei fraction z-score” value amounted to 1.09.

Take `Cc1cc(Nc2ccc(NC(=O)c3ccc(Nc4ccnc5ccccc45)cc3)cc2)nc(N)n1`: the “KCl-induced FOS+/EGR-1+ double-positive nuclei fraction z-score” value was -6.99.

On to `CCC(=O)OCC(=O)[C@@]1(OC(=O)CC)[C@@H](C)C[C@H]2[C@@H]3CCC4=CC(=O)C=C[C@]4(C)[C@@]3(Cl)[C@@H](O)C[C@@]21C` [Beclomethasone dipropionate], for which the “KCl-induced FOS+/EGR-1+ double-positive nuclei fraction z-score” value is 0.298.

With `CN(C)[C@@H]1C(O)=C(C(N)=O)C(=O)[C@@]2(O)C(O)=C3C(=O)c4c(O)cccc4[C@@](C)(O)[C@H]3C[C@@H]12` [Tetracycline HCl], the “KCl-induced FOS+/EGR-1+ double-positive nuclei fraction z-score” value is 1.9.

As to `CCC[C@@H]1C[C@@H](C(=O)N[C@@H]([C@H]2O[C@H](SC)[C@H](OP(=O)(O)O)[C@@H](O)[C@H]2O)[C@H](C)Cl)N(C)C1` [Clindamycin Phosphate], the “KCl-induced FOS+/EGR-1+ double-positive nuclei fraction z-score” value amounted to 1.57.

Regarding `O=S(=O)(NCCNC/C=C/c1ccc(Br)cc1)c1cccc2cnccc12`, the “KCl-induced FOS+/EGR-1+ double-positive nuclei fraction z-score” value was found to be 0.338.

For the compound `O=C(O)c1cc2cccc([N+](=O)[O-])c2[nH]1`, the “KCl-induced FOS+/EGR-1+ double-positive nuclei fraction z-score” value is -0.623.

In the case of `CNC1CCC(N(Cc2cccc(-c3ccncc3)c2)C(=O)c2sc3ccccc3c2Cl)CC1` (stereo not drawn) [Smoothened Agonist (SAG) HCl], the “KCl-induced FOS+/EGR-1+ double-positive nuclei fraction z-score” value is 0.273.

`Cc1ccc(Cl)cc1N(CC(=O)Nc1c(F)cccc1F)S(C)(=O)=O`: the “KCl-induced FOS+/EGR-1+ double-positive nuclei fraction z-score” value was 0.107.

Turning to `CC(C)Oc1ccc(-c2nc(-c3cccc4c3CC[C@@H]4NCCO)no2)cc1C#N` [Ozanimod (RPC1063)], the “KCl-induced FOS+/EGR-1+ double-positive nuclei fraction z-score” value came to 0.636.

With `O=c1c(-c2ccc(O)cc2)coc2cc(O)ccc12` [Daidzein], the “KCl-induced FOS+/EGR-1+ double-positive nuclei fraction z-score” value was determined as 1.05.

Turning to `Nc1nc(CC(=O)Nc2ccc(CCNC[C@H](O)c3ccccc3)cc2)cs1` [Mirabegron], the “KCl-induced FOS+/EGR-1+ double-positive nuclei fraction z-score” value is -0.468.

`Cc1ccnc2c1NC(=O)c1cccnc1N2C1CC1` [Nevirapine]: the “KCl-induced FOS+/EGR-1+ double-positive nuclei fraction z-score” value was found to be 1.98.

With `Cc1ccsc1C(=CCCN1CCC[C@@H](C(=O)O)C1)c1sccc1C` [Tiagabine], the “KCl-induced FOS+/EGR-1+ double-positive nuclei fraction z-score” value is 1.07.

As to `Cc1cc(C)nc(NS(=O)(=O)c2ccc(NC(=S)NC(=O)COc3ccc(Br)cc3Cl)cc2)n1`, the “KCl-induced FOS+/EGR-1+ double-positive nuclei fraction z-score” value came to 0.377.

Turning to `CCC[C@@H]1C[C@@H](C(=O)N[C@@H]([C@H]2O[C@H](SC)[C@H](O)[C@@H](O)[C@H]2O)[C@@H](C)O)N(C)C1` [Lincomycin HCl], the “KCl-induced FOS+/EGR-1+ double-positive nuclei fraction z-score” value stood at 0.213.

As to `N[C@@H](CCC(=O)N[C@@H](CS)C(=O)NCC(=O)O)C(=O)O` [Glutathione], the “KCl-induced FOS+/EGR-1+ double-positive nuclei fraction z-score” value turned out to be 2.2.

As to `Cc1nc2c(O)cccc2c(=O)[nH]1`, the “KCl-induced FOS+/EGR-1+ double-positive nuclei fraction z-score” value is -0.359.

Turning to `CCN1CCN(Cc2ccc(-c3cc4c(N[C@H](C)c5ccccc5)ncnc4[nH]3)cc2)CC1`, the “KCl-induced FOS+/EGR-1+ double-positive nuclei fraction z-score” value is -0.388.
